# Data taken from US8268807B2, “Compositions and method for the treatment of multiple myeloma” (SRI International, priority 2010, dated 2012).
# Entries after “also recorded” stand apart in the source; their conditions may differ. At least one structure is not confirmed: it was looked up by name or label, or the drawing left a doubt.
# Tested on: RPMI-8226 tumor xenografts
# Test: Growth of RPMI-8226 human MM tumor xenografts in SCID mice
# Assay type: in vivo
# Conditions: 5×/week for 4 weeks
structure (smiles),measurement,setting,value
C[C@@H]1Cc2cc(O)ccc2[C@H]2CC[C@]3(C)/C(=C/COCCN(C)C)CC[C@H]3[C@H]12 [Compound (1)],"Tumor growth vs vehicle control, 50 mg/kg","50 mg/kg oral, P<0.05",significantly inhibited; also recorded: statistically inhibited
same,"Tumor growth vs vehicle control, 100 mg/kg","100 mg/kg oral, P<0.02",significantly inhibited; also recorded: statistically inhibited
